{"source": "patent US10195156B2", "about": "“Compounds and compositions for intracellular delivery of agents” (ModernaTX, Inc., priority 2015, dated 2019)", "tested_on": "LDLr−/− mice", "test": "Expression in LDLr−/− mice (LDLr dependence)", "format": "in vivo", "settings": "Table 7b", "note": "At least one read-out could not be matched to a standard name with certainty.", "data": [{"compound": "CCCCCCCCCCCCN(CCCCCCCCCCCC)CCN(CCCCCCCCCCCC)CCN1CCN(CCN(CCCCCCCCCCCC)CCCCCCCCCCCC)CC1", "note": "[KL22, N1-[2-(didodecylamino)ethyl]-N1,N4,N4-tridodecyl-1,4-piperazinediethanamine, reference compound]", "values": [{"measurement": "Lipid/KL22 AUC LDLr−/− mice 0.5 mpk, LDLr", "value": 1}]}]}
